Our source for the parental cell viability and persister cell viability values is the supplement of paper PMC9671908.

Counter-ions that a name gives are not always drawn. Some of the results follow. Repeats are few or missing, and single values can be far off.

One test has as its system MIA PaCa-2 parental. Description: parental cell viability relative to untreated parental control; higher = more surviving cells. The conditions noted are these: treatment time: 9 days.
The test system of a further test is MIA PaCa-2 persister. Description: persister cell viability relative to untreated persister control; higher = more surviving persister cells. The following applies: treatment time: 9 days; cell state: persister (100 nM gemcitabine + 100 nM Torin1).

Turning to `CCNC(=O)C[C@@H]1N=C(c2ccc(Cl)cc2)c2cc(OC)ccc2-n2c(C)nnc21` (inhibitor concentration: 1µM), the parental cell viability with MIA PaCa-2 parental is 100%. In addition, the persister cell viability in the test on MIA PaCa-2 persister is 25%.
For `CO/C1=C\C(C)=C\[C@@H](C)[C@@H](O)[C@@H](C)C/C(C)=C/C=C/[C@H](OC)[C@@H]([C@@H](C)[C@@H](O)[C@H](C)[C@@]2(O)C[C@@H](O)[C@H](C)[C@@H](C(C)C)O2)OC1=O` [Bafilomycin A1] (inhibitor concentration: 2nM), in that order: 70% and 10%.
For `C/C=C(\C)[C@H](O)[C@H](C)/C=C(C)/C=C/C/C(C)=C/Cc1nc(OC)c(OC)c(O)c1C` [Piericidin A] (inhibitor concentration: 10µM), in that order: 101% and 101%.
As for `c1ccc([C@@H]2C[C@H]2NC2CCNCC2)cc1` [GSK-LSD1 (hydrochloride)] (inhibitor concentration: 30µM), the parental cell viability with MIA PaCa-2 parental was 93%. Further, in the test with MIA PaCa-2 persister, the persister cell viability was determined as 109%.
For `C=C(C)[C@H]1Cc2c(ccc3c2O[C@@H]2COc4cc(OC)c(OC)cc4[C@@H]2C3=O)O1` [Rotenone] (inhibitor concentration: 100nM), in that order: 70% and 60%.
For `O=C(O)c1sc2cc(Cl)ccc2c1Cl` [3,6-dichloro-benzo[b]  thiophene-2-Carboxylic Acid] (inhibitor concentration: 30µM), in that order: 100% and 104%.
In the same order, the values of `O=c1[nH]c2ccc(Cl)cc2c(N[C@@H]2CN3CCC2CC3)c1-c1nc2ccccc2[nH]1` (inhibitor concentration: 30nM) are 101% and 5%.
For `C=C1[C@@H](O)[C@@H]2O[C@]3(CC[C@H](/C=C/[C@@H](C)[C@@H]4CC(C)=C[C@@]5(O[C@H](C[C@@](C)(O)C(=O)O)CC[C@H]5O)O4)O3)CC[C@H]2O[C@@H]1[C@@H](O)C[C@H](C)[C@H]1O[C@@]2(CCCCO2)CC[C@H]1C` [Okadaic Acid] (inhibitor concentration: 5nM), the parental cell viability in the test with MIA PaCa-2 parental is 100%. Besides, the persister cell viability with MIA PaCa-2 persister came out at 5%.
For `O=c1[nH]c2ccccc2n1C1CCN(Cc2ccc(-c3[nH]c4cc5ncnc5cc4nc3-c3ccccc3)cc2)CC1` [Akt Inhibitor VIII] (inhibitor concentration: 10µM), in that order: 18% and 55%.
